# PubChem BioAssay AID1671195 – Yale University – 2021
# Assay: 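Regulators of LDL receptor activity judged by labelled LDL uptake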 (primary screen)
# System: human Huh7 hepatoma cells
# Knock-down reagent: siRNA pool against human genes, 18 nM
# Duration: about 2 to 2.5 days of knockdown, then 8 h LDL uptake
# Treatment: DiI-labelled LDL at 30 µg/ml for 8 h, in lipoprotein-deficient serum medium
# Read-out: 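Per-cell DiI-LDL intensity by automated imaging; well means scaled to the plate median and given as a robust z-score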
# Scale: robust z-score: higher = more LDL uptake after knockdown
# Rule for the call: 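Active when two or more replicates show a robust z-score above 2 or below -2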
# This is one part, drawn at random, of about 22,000 reagents. About 1,510 of them (6.9%) were called active. 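Active includes knockdowns raising or lowering LDL uptake; positive z-scores mean more uptake, negative mean less.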
target gene,"robust z-score, replicate 1","robust z-score, replicate 2","robust z-score, replicate 3",call
FASTKD3 (GeneID 79072),0.826,1,1.48,inactive
HIRIP3 (GeneID 8479),-1.12,-0.429,-0.31,inactive
ITPRID2 (GeneID 6744),0.501,0.469,0.665,inactive
MAN1A1 (GeneID 4121),-0.585,-0.534,-1.1,inactive
TAS2R5 (GeneID 54429),0.0598,-0.0867,1.18,inactive
FOXA2 (GeneID 3170),-0.00467,0.495,1.05,inactive
LINC02913 (GeneID 414318),2.7,4.42,4.48,active
SNAPC1 (GeneID 6617),2.14,2.76,1.69,active
IDI1 (GeneID 3422),0.325,0.18,0.0701,inactive
KCTD2 (GeneID 23510),-0.784,-1.81,-0.425,inactive
PITRM1 (GeneID 10531),-0.613,-0.27,-0.414,inactive
SLC10A1 (GeneID 6554),-0.949,-0.465,-0.937,inactive
MPZL2 (GeneID 10205),-0.319,0.104,0.345,inactive
WT1-AS (GeneID 51352),2.23,0.733,-0.0674,inactive
PAPOLB (GeneID 56903),-0.801,-1.31,-0.616,inactive
PAXIP1 (GeneID 22976),-1.71,-0.334,-2.03,inactive
SOBP (GeneID 55084),2.51,0.127,-0.195,inactive
UBQLNL (GeneID 143630),1.31,1.28,1.19,inactive
TEDC1 (GeneID 283643),0.777,0.668,0.465,inactive
NCR1 (GeneID 9437),-0.283,-0.276,-0.506,inactive
CCDC92 (GeneID 80212),0.591,1.13,0.775,inactive
C1orf35 (GeneID 79169),-1.61,-1.06,-1.17,inactive
CFAP161 (GeneID 161502),-0.673,-0.823,-0.318,inactive
ZNF791 (GeneID 163049),-0.503,-1.21,-0.0499,inactive
KCNK2 (GeneID 3776),0.715,0.0781,0.922,inactive
RBBP4 (GeneID 5928),-0.588,-0.14,-0.954,inactive
FAM20B (GeneID 9917),-1.84,-0.716,-0.942,inactive
COL9A2 (GeneID 1298),0.16,0.00954,0.185,inactive
KCNC4 (GeneID 3749),-0.751,-0.977,-0.672,inactive
RGS5 (GeneID 8490),0.616,1.3,0.989,inactive
NATD1 (GeneID 256302),0.297,0.0411,0.179,inactive
FRS2 (GeneID 10818),0.697,0.345,0.271,inactive
ULBP3 (GeneID 79465),-0.564,-1.16,-0.299,inactive
LOC151443 (retired record) (GeneID 151443),0.095,0.306,-0.437,inactive
OR2A14 (GeneID 135941),3.92,3.47,5.21,active
LOC402142 (retired record) (GeneID 402142),-0.367,-0.939,-0.539,inactive
TMEM82 (GeneID 388595),-0.226,-0.258,-0.37,inactive
CHRNA9 (GeneID 55584),3.6,3.59,2.78,active
CACNA1A (GeneID 773),0.558,0.9,0.273,inactive
TRPM7 (GeneID 54822),0.26,-0.605,0.505,inactive
OR5P2 (GeneID 120065),1.1,0.865,0.37,inactive
ATP1B1 (GeneID 481),1.35,0.55,0.874,inactive
NADK (GeneID 65220),0.75,-0.279,-0.149,inactive
EFL1P1 (GeneID 648809),0.594,0.341,0.904,inactive
ARHGAP40 (GeneID 343578),-0.37,-0.362,-0.667,inactive
DPH3 (GeneID 285381),-0.223,-0.425,-0.563,inactive
MTHFD1L (GeneID 25902),0.108,-0.4,0.172,inactive
SAMD4B (GeneID 55095),1.3,1.1,-0.432,inactive
SLC25A24 (GeneID 29957),1.03,1.21,1.35,inactive
APOBEC3H (GeneID 164668),-0.139,0.0698,0.403,inactive
SLC4A4 (GeneID 8671),1.95,2.44,2.97,active
NEK5 (GeneID 341676),1.22,0.592,0.536,inactive
ITPR2 (GeneID 3709),0.719,0.74,0.0814,inactive
LOC400965 (retired record) (GeneID 400965),-0.0374,0.142,0.641,inactive
ARRB1 (GeneID 408),-0.941,-0.779,-1.05,inactive
MIR570HG (GeneID 440993),-0.724,-0.482,-0.542,inactive
GLMP (GeneID 112770),0.0687,0.152,0.197,inactive
LOC440522 (retired record) (GeneID 440522),-1.01,-0.962,-0.957,inactive
LINC00052 (GeneID 145978),-1.39,-0.712,-0.891,inactive
ZNF703 (GeneID 80139),0.622,1.29,1.25,inactive
IFT57 (GeneID 55081),2.24,1.74,1.75,inactive
DOK5 (GeneID 55816),0.0133,-1.06,-0.37,inactive
AANAT (GeneID 15),-0.303,-0.848,-0.797,inactive
PKHD1 (GeneID 5314),-1.06,-1.03,-1.53,inactive
KRT18P21 (GeneID 132391),0.427,0.737,-0.0704,inactive
LOC440899 (retired record) (GeneID 440899),2.17,1.75,2.22,active
DCT (GeneID 1638),0.555,-0.0626,1.28,inactive
SPEN (GeneID 23013),-2.08,-2.01,-1.81,active
